Laboratory results as given in PMC12533206.
No constants are given. Whether binding was seen depends on the method and setting. Binding seen in cells or lysates may run through a third protein. Some entries that bind do so weakly or less than the wild type.

The chains behind the UniProt entries cited, without tags or fusion partners. Residues count along the entry.
UniProt Q8K2Q9: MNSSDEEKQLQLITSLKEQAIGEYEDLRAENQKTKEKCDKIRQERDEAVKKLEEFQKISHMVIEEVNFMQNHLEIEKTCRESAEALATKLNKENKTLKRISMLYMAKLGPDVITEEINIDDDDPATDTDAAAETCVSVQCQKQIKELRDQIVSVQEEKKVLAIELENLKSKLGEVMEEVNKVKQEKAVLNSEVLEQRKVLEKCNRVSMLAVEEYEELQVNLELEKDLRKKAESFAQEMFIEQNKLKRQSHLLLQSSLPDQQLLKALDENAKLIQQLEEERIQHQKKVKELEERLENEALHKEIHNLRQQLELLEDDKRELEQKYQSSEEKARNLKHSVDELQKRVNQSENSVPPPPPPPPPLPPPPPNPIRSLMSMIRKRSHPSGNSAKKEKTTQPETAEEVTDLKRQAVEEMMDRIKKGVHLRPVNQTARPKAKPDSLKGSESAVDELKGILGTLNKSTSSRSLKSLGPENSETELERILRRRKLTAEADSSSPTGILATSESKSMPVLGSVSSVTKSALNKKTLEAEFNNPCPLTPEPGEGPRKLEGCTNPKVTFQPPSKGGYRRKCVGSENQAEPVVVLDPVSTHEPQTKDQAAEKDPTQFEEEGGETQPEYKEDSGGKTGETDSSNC
UniProt Q60598: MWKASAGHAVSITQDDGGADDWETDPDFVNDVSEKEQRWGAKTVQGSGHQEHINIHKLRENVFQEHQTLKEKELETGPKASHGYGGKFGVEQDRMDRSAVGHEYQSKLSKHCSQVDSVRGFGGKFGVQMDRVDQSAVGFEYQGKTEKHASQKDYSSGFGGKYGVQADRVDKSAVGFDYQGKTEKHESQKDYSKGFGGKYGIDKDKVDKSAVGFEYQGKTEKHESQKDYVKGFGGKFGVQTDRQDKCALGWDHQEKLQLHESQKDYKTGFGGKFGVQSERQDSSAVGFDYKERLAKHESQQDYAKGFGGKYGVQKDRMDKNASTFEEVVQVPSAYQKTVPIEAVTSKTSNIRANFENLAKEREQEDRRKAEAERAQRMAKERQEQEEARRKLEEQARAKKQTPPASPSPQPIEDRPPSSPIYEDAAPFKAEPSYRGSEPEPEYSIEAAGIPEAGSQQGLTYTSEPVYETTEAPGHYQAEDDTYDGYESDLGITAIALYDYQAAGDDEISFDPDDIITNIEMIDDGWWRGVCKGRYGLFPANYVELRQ
UniProt P11627, residues 20-1260: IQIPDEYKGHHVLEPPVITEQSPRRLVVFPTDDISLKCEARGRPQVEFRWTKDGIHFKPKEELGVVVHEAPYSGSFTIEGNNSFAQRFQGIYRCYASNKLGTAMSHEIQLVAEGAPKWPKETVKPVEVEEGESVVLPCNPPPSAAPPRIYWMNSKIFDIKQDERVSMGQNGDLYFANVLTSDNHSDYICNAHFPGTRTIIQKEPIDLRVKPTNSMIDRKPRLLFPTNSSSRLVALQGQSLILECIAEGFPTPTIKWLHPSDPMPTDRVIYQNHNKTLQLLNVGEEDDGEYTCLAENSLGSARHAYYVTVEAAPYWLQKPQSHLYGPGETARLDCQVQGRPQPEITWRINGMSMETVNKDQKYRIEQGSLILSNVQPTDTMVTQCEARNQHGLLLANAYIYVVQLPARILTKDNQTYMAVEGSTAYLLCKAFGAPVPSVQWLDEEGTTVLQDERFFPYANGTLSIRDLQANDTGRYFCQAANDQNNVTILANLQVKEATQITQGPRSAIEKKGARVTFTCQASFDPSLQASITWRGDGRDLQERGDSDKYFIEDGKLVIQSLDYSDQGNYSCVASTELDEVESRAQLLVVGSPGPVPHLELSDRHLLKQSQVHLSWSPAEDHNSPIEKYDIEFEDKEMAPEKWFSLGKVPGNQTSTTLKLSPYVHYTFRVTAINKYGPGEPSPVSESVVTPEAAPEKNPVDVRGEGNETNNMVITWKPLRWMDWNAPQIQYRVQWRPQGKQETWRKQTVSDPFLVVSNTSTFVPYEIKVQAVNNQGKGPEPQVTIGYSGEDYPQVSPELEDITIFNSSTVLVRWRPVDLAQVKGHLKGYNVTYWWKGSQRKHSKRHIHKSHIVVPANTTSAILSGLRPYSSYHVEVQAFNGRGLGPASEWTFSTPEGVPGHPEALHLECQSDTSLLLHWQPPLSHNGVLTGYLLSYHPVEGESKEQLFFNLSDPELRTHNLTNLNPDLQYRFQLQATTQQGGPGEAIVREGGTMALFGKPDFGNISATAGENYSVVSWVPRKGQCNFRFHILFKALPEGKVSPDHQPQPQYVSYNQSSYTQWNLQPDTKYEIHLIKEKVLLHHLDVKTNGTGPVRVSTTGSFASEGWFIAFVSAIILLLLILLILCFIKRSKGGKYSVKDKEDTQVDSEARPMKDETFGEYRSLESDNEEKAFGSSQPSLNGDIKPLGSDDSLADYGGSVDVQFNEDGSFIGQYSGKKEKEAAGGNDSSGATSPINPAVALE

Molecular target: shootin1b (endogenous, mouse dendritic cells) (mouse (endogenous in bone marrow-derived dendritic cells)) (UniProt Q8K2Q9)
Assay: co-IP; lysates (NP40-Triton lysis buffer) of mouse dendritic cells treated with 0, 20 or 200 ng/mL CCL19 for 30 min; anti-shootin1 antibody or isotype control IgG, protein G-sepharose; immunoblot with anti-shootin1b, anti-L1, anti-cortactin

binding | Substance
binds | cortactin (endogenous, mouse dendritic cells) (from UniProt Q60598 1-546)
binds | L1 (endogenous, mouse dendritic cells) (from UniProt P11627 20-1260)
